Data published in paper doi:10.1101/544239.
Results are given in words; binding and its absence hold for the method and conditions named. Some entries that bind do so weakly or less than the wild type.

Protein sequences, listed by entry. Tags and fused reporters are not part of them.
UniProt B5Z6X0: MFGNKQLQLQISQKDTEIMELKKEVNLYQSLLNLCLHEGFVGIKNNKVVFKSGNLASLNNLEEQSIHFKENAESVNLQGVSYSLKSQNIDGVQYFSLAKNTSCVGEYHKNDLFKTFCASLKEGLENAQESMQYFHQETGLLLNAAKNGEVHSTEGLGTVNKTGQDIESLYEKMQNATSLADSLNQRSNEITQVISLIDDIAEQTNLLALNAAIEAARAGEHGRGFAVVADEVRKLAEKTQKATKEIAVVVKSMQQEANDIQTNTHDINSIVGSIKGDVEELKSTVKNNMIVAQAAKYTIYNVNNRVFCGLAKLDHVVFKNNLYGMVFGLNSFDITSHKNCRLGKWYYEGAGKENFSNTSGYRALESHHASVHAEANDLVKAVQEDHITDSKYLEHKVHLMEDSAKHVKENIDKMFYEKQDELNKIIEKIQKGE

Target: Helicobacter pylori transducer-like protein D (TlpD), strain SS1 (Helicobacter pylori (SS1 strain)) (UniProt B5Z6X0)
Experiment: fluorescence polarisation

Helicobacter pylori transducer-like protein D (TlpD), strain SS1 (from UniProt B5Z6X0 1-433) (receptor)
binding: binds
